Measurements published in publication PMC12216609, “Inhibitors of eIF1A-ribosome interaction unveil uORF-dependent regulation of translation initiation and antitumor and antiviral effects” (The EMBO Journal, 2025).
Like-named read-outs stand apart in the source and are kept apart here. For part of its entries the source gives two or more results. The list is limited to them. There may be further records. Results that share an entry differ for a reason that is not stated; some may be repeats, others may stem from another dose, organism or construct than stated.

What was measured:
[1] = system: IRF7 5'UTR firefly luciferase reporter in HEK293T cells; conditions: for Short: Normalized to average DMSO: Short reporter;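 for all read-outs here: luciferase signal corrected by a co-transfected GFP reporter for transfection efficiency, read after overnight compound exposure, with Long and Short reporters differing in 5'UTR length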
[2] = system: uORF-bearing 5'UTR firefly reporters in HEK293T cells; test: uORF reinitiation / leaky scanning firefly reporters; conditions: for FF vs RL 2 / averages of FF vs RL 2: 95nt experiment, block FF-2 (c153)
1Ais toxicity in mice = type: in vivo, C57 black mice; conditions: group 2; individual animals
[3] = system: CUG/GUG vs AUG start codon luciferase reporters in HEK293T cells; test: Near-cognate AUG starting codon fidelity reporter assay (GUG, CUG vs AUG); type: cell-based; conditions: listed as 8214

CCOC(=O)c1ccsc1NC(=O)CN1C(=O)NC(C)(c2cccc3ccccc23)C1=O (stereo not shown) [1Ai-1861]
Short: Normalized to average DMSO ([1]; data section, GFP-corrected, 20 µM, per experiment, includes values excluded as outliers, listed as 1861): 0.2761, 0.3541, 0.5218, 0.6776

O=C(COc1ccccc1[N+](=O)[O-])NCc1ccc(-c2ccc(Br)cc2)o1
FF vs RL 2 ([2]; reporter minus 46, DMSO 0.0521225, 0.079704): 0.02662, 0.02707, 0.1018, 0.1662, 0.03733, 0.02176
averages of FF vs RL 2 ([2]; reporter minus46, DMSO 0.079704): 0.02684, 0.134, 0.02954
FF vs RL 2 ([2]; reporter minus 46 plus 50, DMSO 0.0854972, 0.116279): 0.1345, 0.1401, 0.261, 0.2146, 0.1248, 0.09833
averages of FF vs RL 2 ([2]; reporter minus 95, DMSO 0.100888): 0.1373, 0.2378, 0.1116
averages of FF vs RL 2 ([2]; reporter ref, DMSO 0.125352): 0.1035, 0.3719, 0.07639
FF vs RL 2 ([2]; reporter reference, DMSO 0.151626, 0.0990775): 0.06994, 0.1371, 0.375, 0.3687, 0.07321, 0.07957
normalized to DMSO, refference, biological repeats ([2]; refference reporter, biological repeats 1-4, listed as 4700): 0.891, 0.989, 0.575, 1.178
Long: Normalized to average DMSO ([1]; data section, Long reporter, GFP-corrected, 20 µM, per experiment, includes values excluded as outliers, listed as 4700): 0.8352, 0.378, 0.209, 0.5992
Short: Normalized to average DMSO ([1]; data section, GFP-corrected, 20 µM, per experiment, includes values excluded as outliers, listed as 4700): 1.104, 0.6454, 2.338, 0.8681

COc1cc2nccc(Oc3ccc(NC(=O)Nc4cc(C)on4)c(Cl)c3)c2cc1OC
Long: Normalized to average DMSO ([1]; listed as 4927): 0.3921, 0.2098, 0.137, 0.141

COc1cccc(Nc2nc(-c3ccc(NC(C)=O)cc3)c(C)s2)c1 [1Ai-1869]
Long: Normalized to average DMSO ([1]; data section, Long reporter, GFP-corrected, 5 µM, per experiment, listed as 1869): 0.511, 0.2492, 0.6117

O=S(=O)(c1ccccc1)N1CCN(C2c3ccccc3-c3ccccc32)CC1 [1Ai-9025]
Short: Normalized to average DMSO ([1]; data section, GFP-corrected, 20 µM, per experiment, includes values excluded as outliers, listed as 9025): 0.3982, 1.3, 0.7343, 1.513

NS(=O)(=O)c1cccc(-c2ccc(C3Nc4ccccc4-c4nc5ccccc5n43)o2)c1 (stereo not shown) [1Ai-0050]
Long: Normalized to average DMSO ([1]; data section, Long reporter, GFP-corrected, 20 µM, per experiment, includes values excluded as outliers, listed as 0050): 1.251, 0.9381, 0.5424, 1.628
Short: Normalized to average DMSO ([1]; data section, GFP-corrected, 20 µM, per experiment, includes values excluded as outliers, listed as 0050): 3.582, 0.7183, 4.9

Oc1cc(Cl)ccc1Oc1ccc(Cl)cc1Cl [1Ai-6248]
Long: Normalized to average DMSO ([1]; data section, Long reporter, GFP-corrected, 5 µM, per experiment, listed as 6248): 0.427, 0.8225, 0.5097, 0.3257

O=C(/C=C/c1ccc(Cl)s1)Nc1cccc2ncccc12
Short: Normalized to average DMSO ([1]; data section, GFP-corrected, 20 µM, per experiment, includes values excluded as outliers, listed as 4860): 0.8414, 0.8396, 1.6155, 0.7727

O=C1c2ccccc2NC(c2cc(O)c(O)c(Cl)c2)N1c1ccccc1 (stereo not shown) [1A-8214]
Long: Normalized to average DMSO ([1]; listed as 8214): 0.1988, 0.3048, 0.4317, 0.9084
Euthanized Notes (1Ais toxicity in mice): 1/4 dark spleen and 1/2 of Spleen dark red
calculation: CUG (AUG = 100) [3]: 5.18 and 16.909
calculation: GUG (AUG = 100) [3]: 1.769 and 4.804

O=c1cc(CN2CCOCC2)occ1OCCCCCSc1ccnc2cc(C(F)(F)F)ccc12 [1Ai-5730]
Long: Normalized to average DMSO ([1]; data section, Long reporter, GFP-corrected, 10 µM, per experiment, listed as 5730): 0.655 and 0.3999

Cc1ccc(C)n1-c1cc([N+](=O)[O-])ccc1N1CCN(C(=O)c2ccccc2)CC1 [1Ai-9008]
Short: Normalized to average DMSO ([1]; data section, GFP-corrected, 20 µM, per experiment, includes values excluded as outliers, listed as 9008): 0.6588, 0.5909, 0.2377, 0.2631

Cc1cc(-n2c(C)cc(-c3csc(N)n3)c2C)no1 [1Ai-6464]
Short: Normalized to average DMSO ([1]; data section, GFP-corrected, 20 µM, per experiment, includes values excluded as outliers, listed as 6464): 0.1632, 1.353, 0.6742, 1.063

COC(=O)C1=C(C)NC2=C(C(=O)CC(c3ccc(F)cc3)C2)C1c1ccc(N(C)C)cc1Cl (stereo not shown) [1Ai-9162]
Long: Normalized to average DMSO ([1]; data section, Long reporter, GFP-corrected, 20 µM, per experiment, includes values excluded as outliers, listed as 9162): 0.5387, 0.5337, 0.2707, 0.6401
Short: Normalized to average DMSO ([1]; data section, GFP-corrected, 20 µM, per experiment, includes values excluded as outliers, listed as 9162): 0.543, 0.4733, 0.458, 1.459

C=CCNC(=O)CN1CCN(Cc2nc3cc(-c4ccc(Cl)cc4)sc3c(=O)[nH]2)CC1 [1Ai-1524]
Long: Normalized to average DMSO ([1]; data section, Long reporter, GFP-corrected, 20 µM, per experiment, includes values excluded as outliers, listed as 1524): 0.6159, 0.2117, 0.427, 0.5227
Short: Normalized to average DMSO ([1]; data section, GFP-corrected, 20 µM, per experiment, includes values excluded as outliers, listed as 1524): 0.5026, 0.6608, 1.765, 0.409
